Test results: US5792622A, “Assay for chemicals” (priority 1995, dated 1998)
For part of these data: At least one read-out could not be matched to a standard name with certainty. For part of these data: At least one structure is not confirmed: it was looked up by name or label, or the drawing left a doubt.

Columns and labels:
R. meliloti = type: cell-based; details: in words
[1] = system: artificial consortium of 12 bacteria; details: Sun, B., M.S. Thesis (1993); cited from earlier work

Row | Compound | rate of reduction of the dye (R. meliloti) | toxicity value obtained using the Polytox method [1] [ppm]
1 | O=[N+]([O-])c1ccc(-[n+]2nc(-c3ccccc3)nn2-c2ccc(I)cc2)cc1 [INT, 2-(4-iodophenyl)-3-(4-nitrophenyl)-5-phenyltetrazolium chloride] | not as rapid as with MTT | 
2 | Cc1ccccc1 [Toluene] |  | 207
3 | Xylene |  | 140
